PubChem BioAssay AID1508588, Peter MacCallum Cancer Centre – 2020

Purpose: 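Which gene losses make BRAF-mutant melanoma cells more responsive to vemurafenib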 (primary screen)
System: human WM266.4 melanoma cells (BRAF V600 mutant)
Reagent: siRNA pool against human genes, 40 nM
Time to read-out: 96 h from transfection to read-out
Conditions: vemurafenib 300 nM (about IC25), added 48 h after transfection, for 48 h; comparison arm got DMSO vehicle only
Detection: 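Ratios to non-targeting siRNA for cell gain, counted as DAPI nuclei after minus before drug and averaged over two replicates, and for absorbance-read medium lactate per cell; both binned into fold-change classes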
Direction: cell gain with vemurafenib: higher = more cell gain than with non-targeting siRNA; lactate per cell with vemurafenib: higher = more lactate made per cell
Rule for the call: 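Enhancement is called by pairing each knock-down's vehicle-arm and drug-arm fold-change classes for viability or glycolysis; which class combinations qualify is not given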
Calls: active = enhances vemurafenib effect; inactive = no enhancement seen
The deposit covers about 18,000 reagents; shown is a part drawn at random. In the full data, 790 (4.4%) were called active. 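Calls rest on a combination of fold-change classes in drug and vehicle arms, not all shown here.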 Entries without a mark were called inactive.

target	PubChem SID	cell gain with vemurafenib	lactate per cell with vemurafenib
GLIPR1 (GLI pathogenesis related 1)	SID135623843	0.94	0.67
PIF1 (PIF1 5'-to-3' DNA helicase)	SID135622763	0.01	2.23
PARL (presenilin associated rhomboid like)	SID152155594	0.4	0.29
PPP1R14C (protein phosphatase 1 regulatory inhibitor subunit 14C)	SID152148702	0.46	0.33
SLA2 (Src like adaptor 2)	SID135623704	0.42	1
ZBTB37 (zinc finger and BTB domain containing 37)	SID134319000	0.56	0.86
AKTIP (AKT interacting protein)	SID135621642	0.84	0.78
RGS10 (regulator of G protein signaling 10)	SID152148451	0.58	0.98
DLG4 (discs large MAGUK scaffold protein 4)	SID152149566	0.77	0.53
HIPK4 (homeodomain interacting protein kinase 4)	SID135620890	0.67	1.02
DUS3L (dihydrouridine synthase 3 like)	SID134329426	0.06	1.72
TTPA (alpha tocopherol transfer protein)	SID152151575	0.74	0.74
ZDHHC14 (zDHHC palmitoyltransferase 14)	SID134320683	0.58 (active)	0.66
OR4K2 (olfactory receptor family 4 subfamily K member 2)	SID135625147	0.14	1.48
PIK3C2A	SID152154179	0.02	2.21
MYO1B (myosin IB)	SID134325609	0.67	0.89
FNDC3B (fibronectin type III domain containing 3B)	SID134321764	0.46	1.54
MARCHF6 (membrane associated ring-CH-type finger 6)	SID134312052	1.17	0.65
ITGB4 (integrin subunit beta 4)	SID152153653	0.42	1.09
RTN4RL1 (reticulon 4 receptor like 1)	SID135621494	1.12	0.74
CHN2 (chimerin 2)	SID135620738	0.03	1.34
GNPDA2 (glucosamine-6-phosphate deaminase 2)	SID134313530	0.85	1.16
EVX2 (even-skipped homeobox 2)	SID135624354	1.19	1.75
SSNA1 (SS nuclear autoantigen 1)	SID152151681	0.52	1.11
OR10W1 (olfactory receptor family 10 subfamily W member 1)	SID135625205	0.39	1.18
KRTAP9-2 (keratin associated protein 9-2)	SID135622550	0.64	0.84
TMEM101 (transmembrane protein 101)	SID135622838	0.58	1.07
ZNF655 (zinc finger protein 655)	SID152150275	-0.04	1.38
SH3BGRL (SH3 domain binding glutamate rich protein like)	SID134323363	0.65	0.64
WDR82 (WD repeat domain 82)	SID152147586	0.65	1.12
HMBS (hydroxymethylbilane synthase)	SID152150785	0.36	1.05
SSR2 (signal sequence receptor subunit 2)	SID152154176	0.19	2.46
IER2 (immediate early response 2)	SID134323643	0.23	1.31
MYH10 (myosin heavy chain 10)	SID134325581	0.95	1.23
MAGEB6 (MAGE family member B6)	SID134323075	0.41	1.52
HBB (hemoglobin subunit beta)	SID135622040	0.41	0.82
CTDP1 (CTD phosphatase 1)	SID135621748	0.66	0.74

Copied from above for reference:
target	PubChem SID	cell gain with vemurafenib	lactate per cell with vemurafenib
PPP1R14C (protein phosphatase 1 regulatory inhibitor subunit 14C)	SID152148702	0.46	0.33
SLA2 (Src like adaptor 2)	SID135623704	0.42	1
ZBTB37 (zinc finger and BTB domain containing 37)	SID134319000	0.56	0.86
AKTIP (AKT interacting protein)	SID135621642	0.84	0.78
RGS10 (regulator of G protein signaling 10)	SID152148451	0.58	0.98

Additional records follow.
target	PubChem SID	cell gain with vemurafenib	lactate per cell with vemurafenib
ZNF141 (zinc finger protein 141)	SID134323539	0.25	1.08
ZMYM1 (zinc finger MYM-type containing 1)	SID152150451	0.6	1.52
KLHL8 (kelch like family member 8)	SID134323072	0.99	1.23
DEFB127 (defensin beta 127)	SID134321205	0 (active)	1.02
ODAD4 (outer dynein arm docking complex subunit 4)	SID152156455	-0.02	1.52
PARD6B (par-6 family cell polarity regulator beta)	SID152149427	0.52	1.44
ZBTB4 (zinc finger and BTB domain containing 4)	SID134318326	0.62	1.62
BANP (BTG3 associated nuclear protein)	SID152156110	0.29	0.99
RAD54L (RAD54 like)	SID135620846	0.78	0.77
KLF1 (KLF transcription factor 1)	SID152153970	0.51	0.58
PTGER4 (prostaglandin E receptor 4)	SID134311145	0.35	1.64
ACADS (acyl-CoA dehydrogenase short chain)	SID152150715	0.72	1.31
TMEM41B (transmembrane protein 41B)	SID135625304	0.5	1.18
RARRES1 (retinoic acid receptor responder 1)	SID134314617	0.18	1.9
RASA4 (RAS p21 protein activator 4)	SID135621663	0.95	0.8
TBC1D23 (TBC1 domain family member 23)	SID134324222	0.74	1.14
WRN (WRN RecQ like helicase)	SID152148996	0.55	0.74
REEP3 (receptor accessory protein 3)	SID135625116	0.55	0.63
ARPC5 (actin related protein 2/3 complex subunit 5)	SID134316377	0.3	0.92
TNNI1 (troponin I1, slow skeletal type)	SID152155460	0.58	0.53
CEP85L (centrosomal protein 85L)	SID152155123	1	1.03
SSTR5 (somatostatin receptor 5)	SID135621063	0.22	1.34
B3GNT9	SID152154178	0.67	0.52
RNASE10 (ribonuclease A family member 10 (inactive))	SID135624273	0.86	0.7
ACVR1B (activin A receptor type 1B)	SID56478918	0.83	0.64
IRAK3 (interleukin 1 receptor associated kinase 3)	SID56478864	0.04	0.84
FOXL1 (forkhead box L1)	SID152150333	0.07	1.58
GAS2L3 (growth arrest specific 2 like 3)	SID134321828	0.45	0.94
ANKRD45 (ankyrin repeat domain 45)	SID134326832	0.72	1.36
KRTAP3-3 (keratin associated protein 3-3)	SID135622581	0.95	0.65
ELK3 (ETS transcription factor ELK3)	SID134314893	0.7	0.63
MACO1 (macoilin 1)	SID152148374	1.44	0.28
EDDM3B (epididymal protein 3B)	SID152150749	0.36	0.7
CASZ1 (castor zinc finger 1)	SID152156375	0.85	1.15
TAPT1 (transmembrane anterior posterior transformation 1)	SID152155465	0	3.6
NDST3 (N-deacetylase and N-sulfotransferase 3)	SID134313555	0.17 (active)	0.7
RHBDD2 (rhomboid domain containing 2)	SID135624057	0.43	1.48
TMEM14B (transmembrane protein 14B)	SID134319335	0.08	1.82
MYH7 (myosin heavy chain 7)	SID152147938	0.74	0.68
SDCBP2 (syndecan binding protein 2)	SID152149114	0.85	0.8
EOGT (EGF domain specific O-linked N-acetylglucosamine transferase)	SID134325649	0.39	0.77
FBXL6 (F-box and leucine rich repeat protein 6)	SID135622319	0.48	1.61
TM4SF19 (transmembrane 4 L six family member 19)	SID135622978	0.12	1.72
SCYL1 (SCY1 like pseudokinase 1)	SID152146872	0.92	1.06
FUT9 (fucosyltransferase 9)	SID152151417	1.04	0.82
SLC37A3	SID135621406	0.25	1.02
KIF13A (kinesin family member 13A)	SID135621536	0.91	0.68
